This is one part of the list. Repeats are few or missing, and single values can be far off.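 The apoptosis fraction was the count of cleaved-PARP antibody-stained nuclei relative to all DNA-stained nuclei, imaged in 1,536-well plates. Screening doses were set so most cells survived, and baseline and induced cleaved-PARP levels vary greatly across cell lines.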
The molecules below were run on WM115 (assay: cleaved PARP positive nuclei fraction relative to DMSO control; melanoma cells; higher = more apoptosis). Settings: library dose: low library concentration; 72 h.

| SMILES | cleaved PARP positive nuclei fraction [%] |
| --- | --- |
| C[C@]12O[C@H](C[C@]1(O)CO)n1c3ccccc3c3c4c(c5c6ccccc6n2c5c31)CNC4=O [Lestaurtinib] + O=C(CCCCCCC(=O)Nc1ccccc1)NO [vorinostat] (first compound 0.004 µM, partner dose 0.08 µM) | 70.6 |
| CCCCCCCCc1ccc(CCC(N)(CO)CO)cc1 [fingolimod] + N.N.[Cl][Pt][Cl] [cisplatin] (first compound 2 µM, partner dose 1.6 µM) | 118 |
| Cc1ccc(Nc2nccc(N(C)c3ccc4c(C)n(C)nc4c3)n2)cc1S(N)(=O)=O [Pazopanib] + C/C(O)=C(\C#N)C(=O)Nc1cc(Br)ccc1Br [LFM-A13] (first compound 0.4 µM, partner dose 2 µM) | 165 |
| C[C@]12O[C@H](C[C@]1(O)CO)n1c3ccccc3c3c4c(c5c6ccccc6n2c5c31)CNC4=O [Lestaurtinib] + O=C(Nc1cccc(Cl)c1)Nc1ncc(CCNc2ncnc3ccsc23)s1 [SNS314] (first compound 0.004 µM, partner dose 0.0008 µM) | 50 |
| C[C@]12O[C@H](C[C@]1(O)CO)n1c3ccccc3c3c4c(c5c6ccccc6n2c5c31)CNC4=O [Lestaurtinib] + O=C(Oc1ccc([N+](=O)[O-])cc1)N1CCC(C(O)(c2ccc3c(c2)OCO3)c2ccc3c(c2)OCO3)CC1 [JZL184] (first compound 0.004 µM, partner dose 1 µM) | 118 |
| Cn1cc(C2=C(c3cn(C4CCN(Cc5ccccn5)CC4)c4ccccc34)C(=O)NC2=O)c2ccccc21 [Enzastaurin] + CC(=O)c1c(C)c2cnc(Nc3ccc(N4CCNCC4)cn3)nc2n(C2CCCC2)c1=O [palbociclib] (first compound 0.8 µM, partner dose 0.04 µM) | 63.5 |
| C[As](C)SC[C@H](NC(=O)CC[C@H](N)C(=O)O)C(=O)NCC(=O)O [Darinaparsin] + Cn1nnc2c(C(N)=O)ncn2c1=O [temozolomide] (first compound 0.4 µM, partner dose 2 µM) | 80 |
| Cn1c(=O)n(-c2ccc(C(C)(C)C#N)cc2)c2c3cc(-c4cnc5ccccc5c4)ccc3ncc21 + C/C(O)=C(\C#N)C(=O)Nc1cc(Br)ccc1Br [LFM-A13] (first compound 0.004 µM, partner dose 2 µM) | 152 |
| CC(C)(C)c1cnc(CSc2cnc(NC(=O)C3CCNCC3)s2)o1 + O=C(Oc1ccc([N+](=O)[O-])cc1)N1CCC(C(O)(c2ccc3c(c2)OCO3)c2ccc3c(c2)OCO3)CC1 [JZL184] (first compound 0.01 µM, partner dose 1 µM) | 77.4 |
| N.N.[Cl][Pt][Cl] [cisplatin] + COc1ccc2c(c1)CCC1C2CCC2(C)C(NCCCCCCN3C(=O)C=CC3=O)CCC12 [U73122] (first compound 1.6 µM, partner dose 0.4 µM) | 237 |
| Cc1cc(SCc2sc(-c3ccc(C(F)(F)F)c(F)c3)nc2C)ccc1OCC(=O)O + Oc1cc(-c2nc(-c3ccccc3)[nH]c2-c2ccncc2)ccc1Cl [L779450] (first compound 2 µM, partner dose 0.2 µM) | 109 |
| CC1(C)CCC(c2ccc(Cl)cc2)=C(CN2CCN(c3ccc(C(=O)NS(=O)(=O)c4ccc(N[C@H](CCN5CCOCC5)CSc5ccccc5)c(S(=O)(=O)C(F)(F)F)c4)cc3)CC2)C1 + O=C(Oc1ccc([N+](=O)[O-])cc1)N1CCC(C(O)(c2ccc3c(c2)OCO3)c2ccc3c(c2)OCO3)CC1 [JZL184] (first compound 0.4 µM, partner dose 1 µM) | 463 |
| CS(=O)(=O)c1ccc(C(=O)Nc2ccc(Cl)c(-c3ccccn3)c2)c(Cl)c1 [vismodegib] + N.N.[Cl][Pt][Cl] [cisplatin] (first compound 1 µM, partner dose 1.6 µM) | 79.4 |
| O=C(/C=C/c1cccnc1)NCCCCC1CCN(C(=O)c2ccccc2)CC1 + C/C(O)=C(\C#N)C(=O)Nc1cc(Br)ccc1Br [LFM-A13] (first compound 0.01 µM, partner dose 2 µM) | 104 |
| C[As](C)SC[C@H](NC(=O)CC[C@H](N)C(=O)O)C(=O)NCC(=O)O [Darinaparsin] + Cn1cc(/C=C2\C(=O)Nc3cccnc32)c2ccccc21 [GW441756] (first compound 0.4 µM, partner dose 0.4 µM) | 53.2 |
